Among the data in article PMC9731449 are binding values, retold here.

What all share (settings): remark: other sources report otherwise
The target of test [1] is T1, PPE20 (Rv1387) with a C-terminal Strep II tag (Mycobacterium tuberculosis H37Rv), P9WI23.
T1 chain: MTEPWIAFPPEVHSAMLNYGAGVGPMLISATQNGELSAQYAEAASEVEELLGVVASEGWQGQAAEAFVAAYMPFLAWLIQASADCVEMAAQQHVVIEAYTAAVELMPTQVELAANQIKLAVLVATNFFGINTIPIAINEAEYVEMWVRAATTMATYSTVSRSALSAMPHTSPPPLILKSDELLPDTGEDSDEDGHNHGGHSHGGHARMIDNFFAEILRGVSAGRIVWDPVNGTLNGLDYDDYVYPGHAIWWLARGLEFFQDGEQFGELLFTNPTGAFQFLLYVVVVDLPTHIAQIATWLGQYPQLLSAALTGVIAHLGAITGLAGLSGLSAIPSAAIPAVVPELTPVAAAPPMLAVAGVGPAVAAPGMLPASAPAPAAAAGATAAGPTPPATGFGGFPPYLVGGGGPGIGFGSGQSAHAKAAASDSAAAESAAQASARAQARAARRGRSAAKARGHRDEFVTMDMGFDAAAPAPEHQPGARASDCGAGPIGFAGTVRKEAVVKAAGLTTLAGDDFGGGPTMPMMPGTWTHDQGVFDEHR
The test can be described thus: pull-down; […] (50 mM Tris pH 8.0, 150 NaCl, 10% glycerol); […].

Test [2] deals with T2, PE15 (Rv1386) with an N-terminal His tag (Mycobacterium tuberculosis H37Rv), P9WIH1.
T2 chain: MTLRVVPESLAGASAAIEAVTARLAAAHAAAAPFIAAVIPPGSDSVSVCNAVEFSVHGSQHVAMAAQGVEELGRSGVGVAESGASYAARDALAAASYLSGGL
Described as above.

For test [3], the target named is T2, PE15 (Rv1386) with an N-terminal His …. Nature of the test: native gel or EMSA. For orientation: A gel shift assay detects complexes by their altered migration in electrophoresis.

These are yes or no findings as the source states them, for the method shown. For part of these data: In cells and extracts the contact can be indirect. Some results given as binding are weak or reduced against the parent protein; the word gives no strength. Tags and fused reporters may be left off the sequences shown.

B1: PE15 (Rv1386) with an N-terminal His tag, P9WIH1 1-102 (protein)
chain: MTLRVVPESLAGASAAIEAVTARLAAAHAAAAPFIAAVIPPGSDSVSVCNAVEFSVHGSQHVAMAAQGVEELGRSGVGVAESGASYAARDALAAASYLSGGL
For the molecule B1, the binding result in test [1] is “binds”.

B2: PPE20 (Rv1387) with a C-terminal Strep II tag, P9WI23 1-539 (protein)
chain: MTEPWIAFPPEVHSAMLNYGAGVGPMLISATQNGELSAQYAEAASEVEELLGVVASEGWQGQAAEAFVAAYMPFLAWLIQASADCVEMAAQQHVVIEAYTAAVELMPTQVELAANQIKLAVLVATNFFGINTIPIAINEAEYVEMWVRAATTMATYSTVSRSALSAMPHTSPPPLILKSDELLPDTGEDSDEDGHNHGGHSHGGHARMIDNFFAEILRGVSAGRIVWDPVNGTLNGLDYDDYVYPGHAIWWLARGLEFFQDGEQFGELLFTNPTGAFQFLLYVVVVDLPTHIAQIATWLGQYPQLLSAALTGVIAHLGAITGLAGLSGLSAIPSAAIPAVVPELTPVAAAPPMLAVAGVGPAVAAPGMLPASAPAPAAAAGATAAGPTPPATGFGGFPPYLVGGGGPGIGFGSGQSAHAKAAASDSAAAESAAQASARAQARAARRGRSAAKARGHRDEFVTMDMGFDAAAPAPEHQPGARASDCGAGPIGFAGTVRKEAVVKAAGLTTLAGDDFGGGPTMPMMPGTWTHDQGVFDEHR
Turning to B2, the binding result in test [2] and in test [3] was “binds” throughout.
